Measurements as given in article PMC3958483, “Fine Specificity and Molecular Competition in SLAM Family Receptor Signalling” (PLoS ONE, 2014).
Results are given in words; binding and its absence hold for the method and conditions named. Some entries that bind do so weakly or less than the wild type.

T1: CRACC ITSM2 phosphopeptide (Biotin-PANTVpYSTVEI) (human)
T1 sequence (peptide, phosphotyrosine (pY, position 6 of the peptide); biotin on the N-terminus): PANTVYSTVEI


Target: T1, CRACC ITSM2 phosphopeptide (Biotin-PANTVpYSTVEI) (human)
Assay: SPR; data not shown; isolated SH2 domains of SAP and EAT-2, affinities compared with the full length proteins; both purified

| binding | Binder |
| --- | --- |
| binds | isolated SH2 domain of SAP (domain or fragment, UniProt O60880 6-104) VYHGKISRETGEKLLLATGLDGSYLLRDSESVPGVYCLCVLYHGYIYTYRVSQTETGSWSAETAPGVHKRYFRKIKNLISAFQKPDQGIVIPLQYPVEK |
| binds | isolated SH2 domain of EAT-2 (domain or fragment, UniProt O14796 5-101) YYHGRLTKQDCETLLLKEGVDGNFLLRDSESIPGVLCLCVSFKNIVYTYRIFREKHGYYRIQTAEGSPKQVFPSLKELISKFEKPNQGMVVHLLKPI |
